Taken from: PubChem BioAssay AID504786 (Drosophila RNAi Screening Center, 2011)
Purpose: 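Knock-downs reducing HIF reporter induction by the iron chelator DFO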 (primary screen). Cells: Drosophila S2 cells with a stable HIF luciferase reporter. Knock-down reagent: long dsRNA against Drosophila genes, about 0.2 µg dsRNA per well of a 384-well plate. Duration: three days of knock-down, then 20 h of DFO before reading. Treatment: desferrioxamine (DFO) at 100 µM, an iron chelator that mimics hypoxia, for 20 h. Detection: 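Firefly luciferase driven by the mouse ldh-a hypoxia-response element, measured after 20 h of 100 µM DFO; z-scores per plate, higher means more signal lost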. Scale: z-score: higher = stronger loss of HIF reporter signal.
In all, the deposit lists about 21,000 reagents; shown is a random part of those that have a named target and a result. 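Primary screen; positive scores mean lost reporter signal, so the sign may be inverted from the usual convention.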 The numbers tell different reagents against one gene apart. Names joined by + are all predicted targets of the reagent. Not all columns of the deposit are shown.

z-score, replicate 1, by gene and reagent
Or83a: #1 -0.2
AstA-R2: #1 -0.3
CG34273: #1 -0.2
Rtnl1: #1 -0.4; #2 -0.3; #3 -0.4
CG9673: #1 -0.3
raskol: #1 -0.3; #2 -0.4; #3 -0.5; #4 2.8
Spf30: #1 0
CG15653: #1 -0.2
CG42380 + CG42379 + PIG-M + 1 more: #1 0.5; #2 -0.2
CG31826: #1 -0.4
CG14744: #1 -0.3
nSyb: #1 0
CG34241: #1 -0.4
CG9628: #1 -0.3
Ku80: #1 -0.3
Obp56b: #1 -0.1
Alg9: #1 -0.3
Chro: #1 0.6
Tim10 + CG42497: #1 -0.2
CG17593: #1 -0.1
CG14015: #1 0.2
Lrp4: #1 -0.4
Atpalpha: #1 -0.3
CG14330: #1 -0.5
CG13998: #1 -0.3
CG13002: #1 0
CG11300: #1 -0.1
CG17625: #1 -0.3

Copied from the entries so far for reference:
z-score, replicate 1, by gene and reagent
Rtnl1: #1 -0.4; #2 -0.3
